Experimental data reported in US20080227698A1, “OLIGOPEPTIDES FOR TREATMENT OF OSTEOPOROSIS AND OTHER BONE DISEASES AND METHODS THEREOF” (Washington University, priority 2005, published 2008).
Some entries share one result that the patent states for a list of compounds.

By UniProt entry, the sequences of proteins in these tests, tags left out. Residues count along the entry.
UniProt O75197, 32-1615: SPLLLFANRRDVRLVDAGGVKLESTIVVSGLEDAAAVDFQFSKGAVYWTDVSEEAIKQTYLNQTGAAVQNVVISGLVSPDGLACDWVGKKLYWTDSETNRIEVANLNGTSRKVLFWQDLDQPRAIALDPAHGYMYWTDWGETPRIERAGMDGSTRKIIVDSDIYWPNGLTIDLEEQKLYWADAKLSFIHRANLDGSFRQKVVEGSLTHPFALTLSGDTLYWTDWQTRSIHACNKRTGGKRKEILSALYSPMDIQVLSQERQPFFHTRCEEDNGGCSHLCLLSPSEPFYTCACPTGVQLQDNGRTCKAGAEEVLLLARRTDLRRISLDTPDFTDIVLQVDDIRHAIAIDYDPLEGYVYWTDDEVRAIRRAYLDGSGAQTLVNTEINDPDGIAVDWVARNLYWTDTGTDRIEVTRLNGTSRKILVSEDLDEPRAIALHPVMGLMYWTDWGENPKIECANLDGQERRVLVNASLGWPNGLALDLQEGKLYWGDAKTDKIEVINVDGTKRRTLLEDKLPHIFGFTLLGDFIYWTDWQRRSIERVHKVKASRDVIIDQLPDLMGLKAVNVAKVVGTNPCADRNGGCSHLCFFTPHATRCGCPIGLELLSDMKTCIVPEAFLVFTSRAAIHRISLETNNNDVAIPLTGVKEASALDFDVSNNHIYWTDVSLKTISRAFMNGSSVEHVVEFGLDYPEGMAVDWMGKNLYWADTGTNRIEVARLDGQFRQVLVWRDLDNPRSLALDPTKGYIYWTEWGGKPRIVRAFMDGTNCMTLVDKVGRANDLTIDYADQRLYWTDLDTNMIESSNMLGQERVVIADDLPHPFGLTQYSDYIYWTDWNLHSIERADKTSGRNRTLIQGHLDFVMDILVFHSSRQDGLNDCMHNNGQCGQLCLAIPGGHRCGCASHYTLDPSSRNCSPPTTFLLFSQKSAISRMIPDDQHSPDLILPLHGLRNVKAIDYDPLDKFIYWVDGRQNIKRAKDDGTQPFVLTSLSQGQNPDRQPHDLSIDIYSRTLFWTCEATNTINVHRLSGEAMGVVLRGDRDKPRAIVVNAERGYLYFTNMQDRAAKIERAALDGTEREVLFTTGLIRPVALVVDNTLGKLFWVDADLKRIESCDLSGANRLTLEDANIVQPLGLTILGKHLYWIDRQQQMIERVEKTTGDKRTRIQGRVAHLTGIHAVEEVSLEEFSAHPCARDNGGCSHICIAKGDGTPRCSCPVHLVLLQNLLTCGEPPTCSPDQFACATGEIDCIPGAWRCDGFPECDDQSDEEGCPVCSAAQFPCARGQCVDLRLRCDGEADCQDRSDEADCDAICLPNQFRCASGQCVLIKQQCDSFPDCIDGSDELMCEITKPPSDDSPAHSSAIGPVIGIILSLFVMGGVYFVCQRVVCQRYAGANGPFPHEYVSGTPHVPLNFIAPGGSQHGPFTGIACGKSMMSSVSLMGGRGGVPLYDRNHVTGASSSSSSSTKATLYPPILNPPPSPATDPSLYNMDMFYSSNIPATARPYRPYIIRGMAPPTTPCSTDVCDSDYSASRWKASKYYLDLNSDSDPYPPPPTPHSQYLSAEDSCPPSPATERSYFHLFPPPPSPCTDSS
UniProt O75581, 20-1613: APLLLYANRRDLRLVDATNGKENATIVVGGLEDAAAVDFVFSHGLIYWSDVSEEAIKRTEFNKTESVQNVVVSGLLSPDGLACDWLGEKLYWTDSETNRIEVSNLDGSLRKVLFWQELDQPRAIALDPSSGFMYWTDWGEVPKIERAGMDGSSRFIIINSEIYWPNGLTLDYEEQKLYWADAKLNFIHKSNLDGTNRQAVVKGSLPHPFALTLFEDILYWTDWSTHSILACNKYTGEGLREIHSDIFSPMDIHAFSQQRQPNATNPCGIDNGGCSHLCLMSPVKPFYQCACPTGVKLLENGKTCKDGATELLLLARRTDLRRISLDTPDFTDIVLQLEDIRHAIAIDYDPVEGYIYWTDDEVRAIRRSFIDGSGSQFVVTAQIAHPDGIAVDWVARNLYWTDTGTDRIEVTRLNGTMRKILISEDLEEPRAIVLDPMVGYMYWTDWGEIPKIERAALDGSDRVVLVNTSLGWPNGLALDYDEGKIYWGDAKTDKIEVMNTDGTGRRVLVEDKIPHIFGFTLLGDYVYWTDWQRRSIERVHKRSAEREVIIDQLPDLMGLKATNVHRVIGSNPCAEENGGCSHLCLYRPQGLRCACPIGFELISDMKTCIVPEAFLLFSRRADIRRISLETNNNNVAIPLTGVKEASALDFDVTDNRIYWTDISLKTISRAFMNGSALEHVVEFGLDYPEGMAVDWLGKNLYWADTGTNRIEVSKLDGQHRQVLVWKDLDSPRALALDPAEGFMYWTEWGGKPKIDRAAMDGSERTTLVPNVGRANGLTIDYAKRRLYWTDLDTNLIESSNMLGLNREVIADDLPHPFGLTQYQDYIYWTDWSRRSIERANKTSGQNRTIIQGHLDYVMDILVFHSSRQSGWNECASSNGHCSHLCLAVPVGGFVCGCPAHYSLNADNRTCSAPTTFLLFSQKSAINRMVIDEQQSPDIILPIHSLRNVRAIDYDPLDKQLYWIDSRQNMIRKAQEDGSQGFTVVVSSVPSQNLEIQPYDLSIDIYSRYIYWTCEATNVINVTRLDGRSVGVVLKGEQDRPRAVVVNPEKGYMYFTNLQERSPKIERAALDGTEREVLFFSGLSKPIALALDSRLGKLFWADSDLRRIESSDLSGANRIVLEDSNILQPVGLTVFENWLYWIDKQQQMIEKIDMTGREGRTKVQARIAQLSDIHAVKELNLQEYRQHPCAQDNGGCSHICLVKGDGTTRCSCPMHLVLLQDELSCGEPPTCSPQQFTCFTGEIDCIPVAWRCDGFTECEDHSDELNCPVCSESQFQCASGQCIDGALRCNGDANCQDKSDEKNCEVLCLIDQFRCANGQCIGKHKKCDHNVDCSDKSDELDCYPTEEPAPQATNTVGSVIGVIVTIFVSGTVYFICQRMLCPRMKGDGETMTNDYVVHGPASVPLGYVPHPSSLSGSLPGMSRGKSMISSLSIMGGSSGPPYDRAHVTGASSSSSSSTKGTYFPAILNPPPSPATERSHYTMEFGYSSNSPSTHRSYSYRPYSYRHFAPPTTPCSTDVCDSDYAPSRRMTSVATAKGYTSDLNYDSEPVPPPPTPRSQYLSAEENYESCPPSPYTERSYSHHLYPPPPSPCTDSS

Assays:
[1] = molecular target: LRP5 (Homo sapiens, UniProt O75197); experiment: ^125I-Mesd binding to LRP5, competition by Mesd or oligopeptide (FIG. 10A)
[2] = molecular target: LRP6 (Homo sapiens, UniProt O75581); experiment: ^125I-DKK1 binding to LRP6, competition by Mesd or oligopeptide (FIG. 10D); set-up: plasmid pCS-Myc-hLRP6 containing the full-length human LRP6 cDNA; HA; expressed in transfected cells; host or cells: human HT1080 cells, stably transduced (pLNCX2 retroviral vector)

Molecule | Reduction of binding of ^125I-Mesd to LRP5 [1] | Binding of ^125I-DKK1 to LRP6 (reduction) [2]
KGGGSKEKNKTKPEKAKKKEGDPKPRASKEDNRAGSR [SEQ ID NO: 20] | up to 10 fold | greater than 2 fold
Mesd: recombinant wild-type mouse Mesd, polyhistidine tail at the N-terminus, lacks the signal peptide, expressed in E. coli (protein, left off: small tags and cut ends, recombinant wild-type mouse Mesd, polyhistidine tail at the N-terminus, lacks the signal peptide, expressed in E. coli) ADTPGEATPPPRKKKDIRDYNDADMARLLEQWEKDDDIEEGDLPEHKRPSAPIDFSKLDPGKPESILKMTKKGKTLMMFVTVSGNPTEKETEEITSLWQGSLFNANYDVQRFIVGSDRAIFMLRDGSYAWEIKDFLVSQDRCAEVTLEGQMYPGKGGGSKEKNKTKPEKAKKKEGDRKPRASKEDNRAGSRREDL | up to 10 fold | greater than 2 fold
